From article PMC12607013
Substitutions are numbered along the chain they refer to. These are yes or no findings as the source states them, for the method shown. In cells and extracts the contact can be indirect. Some binding calls cover weakened binding; strength is not graded here. Tags and fused reporters may be left off the sequences shown.

The chains behind the UniProt entries cited, without tags or fusion partners.
UniProt Q93009: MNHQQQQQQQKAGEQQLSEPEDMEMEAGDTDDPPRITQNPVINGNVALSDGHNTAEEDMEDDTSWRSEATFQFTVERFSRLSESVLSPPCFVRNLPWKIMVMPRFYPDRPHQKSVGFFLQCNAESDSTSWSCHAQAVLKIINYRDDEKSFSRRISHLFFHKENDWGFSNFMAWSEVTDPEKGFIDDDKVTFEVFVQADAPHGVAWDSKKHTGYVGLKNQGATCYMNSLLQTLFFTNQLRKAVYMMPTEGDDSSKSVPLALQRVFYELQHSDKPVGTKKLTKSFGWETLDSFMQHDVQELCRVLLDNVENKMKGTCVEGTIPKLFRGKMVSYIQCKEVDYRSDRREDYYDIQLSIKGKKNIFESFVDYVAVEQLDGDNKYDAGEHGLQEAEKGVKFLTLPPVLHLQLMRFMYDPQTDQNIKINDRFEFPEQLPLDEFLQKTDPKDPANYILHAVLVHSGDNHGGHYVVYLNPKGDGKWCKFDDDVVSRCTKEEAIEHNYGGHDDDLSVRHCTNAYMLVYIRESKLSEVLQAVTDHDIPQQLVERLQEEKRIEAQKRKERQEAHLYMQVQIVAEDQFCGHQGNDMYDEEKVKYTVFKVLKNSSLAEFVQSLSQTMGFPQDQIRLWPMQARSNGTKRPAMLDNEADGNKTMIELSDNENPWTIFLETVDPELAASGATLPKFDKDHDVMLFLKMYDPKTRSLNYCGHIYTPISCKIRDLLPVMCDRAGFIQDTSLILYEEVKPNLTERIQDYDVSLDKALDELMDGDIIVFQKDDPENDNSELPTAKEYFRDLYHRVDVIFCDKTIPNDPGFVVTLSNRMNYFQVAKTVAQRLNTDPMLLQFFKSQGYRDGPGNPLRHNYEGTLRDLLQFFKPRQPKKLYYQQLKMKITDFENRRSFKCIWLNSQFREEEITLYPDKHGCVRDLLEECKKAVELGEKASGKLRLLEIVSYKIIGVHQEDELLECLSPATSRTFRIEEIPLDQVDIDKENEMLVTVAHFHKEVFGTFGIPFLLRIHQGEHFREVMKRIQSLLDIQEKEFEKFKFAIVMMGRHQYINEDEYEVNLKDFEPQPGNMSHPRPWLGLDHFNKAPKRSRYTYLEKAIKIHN

Key:
[1] = molecular target: T1, FLAG-tagged full-length OTUD4 C45A (active-site mutant) (human) (UniProt Q01804); assay: co-IP; HEK293T cells transfected with the indicated plasmids, 48 to 72 h; clarified lysates incubated overnight at 4 °C with anti-FLAG M2-agarose or anti-HA-agarose beads; Western blot
T1 sequence: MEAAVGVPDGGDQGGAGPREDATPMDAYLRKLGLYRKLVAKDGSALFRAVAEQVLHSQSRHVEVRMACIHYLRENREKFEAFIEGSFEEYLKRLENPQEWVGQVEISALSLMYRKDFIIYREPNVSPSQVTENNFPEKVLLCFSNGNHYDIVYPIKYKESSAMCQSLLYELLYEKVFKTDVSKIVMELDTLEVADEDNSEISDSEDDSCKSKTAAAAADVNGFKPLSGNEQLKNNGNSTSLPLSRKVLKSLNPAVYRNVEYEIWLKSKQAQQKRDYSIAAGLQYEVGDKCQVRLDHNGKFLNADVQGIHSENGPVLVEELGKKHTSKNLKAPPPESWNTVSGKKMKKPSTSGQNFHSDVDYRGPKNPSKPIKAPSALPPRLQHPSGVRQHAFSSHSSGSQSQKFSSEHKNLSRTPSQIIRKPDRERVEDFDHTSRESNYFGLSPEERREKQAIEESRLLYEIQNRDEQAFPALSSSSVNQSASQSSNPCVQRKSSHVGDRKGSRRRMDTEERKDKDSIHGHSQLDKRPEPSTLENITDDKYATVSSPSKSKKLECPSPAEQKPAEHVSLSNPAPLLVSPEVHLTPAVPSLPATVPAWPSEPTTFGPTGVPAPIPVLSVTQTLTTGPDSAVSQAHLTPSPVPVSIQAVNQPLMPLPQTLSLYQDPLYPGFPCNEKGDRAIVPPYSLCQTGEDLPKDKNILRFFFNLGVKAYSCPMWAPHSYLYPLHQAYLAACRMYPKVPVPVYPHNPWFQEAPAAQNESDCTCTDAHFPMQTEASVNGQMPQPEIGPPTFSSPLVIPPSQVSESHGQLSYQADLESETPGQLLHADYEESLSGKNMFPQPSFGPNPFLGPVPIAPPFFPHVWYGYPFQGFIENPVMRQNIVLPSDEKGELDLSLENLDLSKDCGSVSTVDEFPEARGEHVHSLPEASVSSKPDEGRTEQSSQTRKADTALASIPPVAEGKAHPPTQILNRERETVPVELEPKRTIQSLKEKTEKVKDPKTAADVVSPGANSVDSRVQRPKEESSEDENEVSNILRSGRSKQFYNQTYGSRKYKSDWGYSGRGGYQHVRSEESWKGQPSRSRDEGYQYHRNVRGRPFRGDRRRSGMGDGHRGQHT

[2] = molecular target: T2, FLAG-tagged full-length OTUD4 H148Y (tumor-associated variant) (human) (UniProt Q01804); assay: as above
T2 sequence: T1 sequence with A45C, H148Y

binding [1]: binds
binding [2]: binds
Substance: USP7 (from UniProt Q93009 1-1102) (enzyme)
